Data as given in PubChem BioAssay AID1259254 (NCATS, 2017).

Assay: 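Gene knock-downs that lead to re-replication, shown by excess G2 DNA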 (primary screen)
System: human HCT116 colorectal cancer cells
Reagents: single siRNA against human genes
Timing: 3 days
Detection: 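Nuclei stained with Hoechst and imaged; cell-cycle phase assigned by DNA content; G2 share scaled per plate, non-targeting siRNA 0%, GMNN siRNA 100%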
Direction: G2 robust z-score: higher = more G2 cells, more excess DNA replication
Rule for the call: 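Active siRNAs have a G2 robust z of 5 or more median absolute deviations over the median, which in these data means about 38% or higher of GMNN control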
This is an unselected part of about 59,000 reagents. About 1,550 of them (2.6%) count as active. 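G2 share is only a proxy for re-replication; each gene was hit by three separate siRNAs, and active genes were retested.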 A number with no mark means an inactive call. The numbers tell different reagents against one gene apart. Further read-outs or replicates are left out here. Not given: the amount of reagent.

gene knocked down | siRNA no. | G2 robust z-score
PPP1R14D (protein phosphatase 1 regulatory inhibitor subunit 14D) | 1 | 0.16
PPP1R14D (protein phosphatase 1 regulatory inhibitor subunit 14D) | 2 | 5.43 (active)
PPP1R14D (protein phosphatase 1 regulatory inhibitor subunit 14D) | 3 | 1.93
FAM107A (family with sequence similarity 107 member A) | 1 | 1.95
FAM107A (family with sequence similarity 107 member A) | 2 | 0.757
FAM107A (family with sequence similarity 107 member A) | 3 | 1.76
EHD1 (EH domain containing 1) | 1 | -0.827
EHD1 (EH domain containing 1) | 2 | -1.19
EHD1 (EH domain containing 1) | 3 | 1.02
TXN (thioredoxin) | 1 | 5.47 (active)
TXN (thioredoxin) | 2 | 1.84
TXN (thioredoxin) | 3 | -1.01
MAPK13 (mitogen-activated protein kinase 13) | 1 | -1.36
MAPK13 (mitogen-activated protein kinase 13) | 2 | -1.03
MAPK13 (mitogen-activated protein kinase 13) | 3 | -0.345

Active calls (from the list above):
gene knocked down | siRNA no. | G2 robust z-score
PPP1R14D (protein phosphatase 1 regulatory inhibitor subunit 14D) | 2 | 5.43 (active)
TXN (thioredoxin) | 1 | 5.47 (active)

The listing continues.
gene knocked down | siRNA no. | G2 robust z-score
ZNF155 (zinc finger protein 155) | 1 | 1.66
ZNF155 (zinc finger protein 155) | 2 | -0.211
ZNF155 (zinc finger protein 155) | 3 | -0.994
FBN1 (fibrillin 1) | 1 | -0.575
FBN1 (fibrillin 1) | 2 | 0.383
FBN1 (fibrillin 1) | 3 | 6.66 (active)
ALOX15B (arachidonate 15-lipoxygenase type B) | 1 | 1.12
ALOX15B (arachidonate 15-lipoxygenase type B) | 2 | 0.661
ALOX15B (arachidonate 15-lipoxygenase type B) | 3 | 0.435
CCDC159 (coiled-coil domain containing 159) | 1 | -0.767
CCDC159 (coiled-coil domain containing 159) | 2 | -0.0365
CCDC159 (coiled-coil domain containing 159) | 3 | -0.612
TSPYL6 (TSPY like 6) | 1 | -0.528
TSPYL6 (TSPY like 6) | 2 | -0.015
TSPYL6 (TSPY like 6) | 3 | -0.127
